Publication PMC12040169 (PLOS Biology, 2025)
The list shows a part of the results.

test system: T1, CTL2-GFP (C. trachomatis L2/434/Bu, GFP-expressing); parameters: species or system HeLa; Intracellular C. trachomatis growth in HeLa cells, bulk GFP fluorescence relative to DMSO; conditions: bulk GFP, single well; 28.5 h, 10 µM; inhibitor
T1 construct: L2/434/Bu, GFP-expressing

Row | Compound | % of control remaining
1 | CCC(C)c1nnc(C2(c3ccc(Br)cc3)CCOCC2)o1 (stereo not shown) [CBK306229] | 102.745%
2 | O=C(/C=C/c1ccc2c(c1)OCO2)Nc1ccc(S(=O)(=O)Nc2cnc3ccccc3n2)cc1 [CBK265445] | 78.0753%
3 | O=C(Cc1ccccc1F)NCc1nnc(-c2cccs2)o1 [CBK284632] | 145.443%
4 | CCc1nc2ccc(C(=O)Nc3ccc4c(c3)CCN4C(C)=O)cn2c1N(C=O)CC [CBK145944] | 149.914%
5 | Cc1cc(NC(=O)c2c(F)cccc2F)nc2c1c(=O)oc1ccccc12 [CBK291115] | 125.149%
6 | Cc1cc(C)nc(NC(=O)C(C)Oc2ccc(Cl)cc2Cl)n1 (stereo not shown) [CBK265600] | 110.66%
7 | Cc1ccnc(SCCn2c(N(C)Cc3ccccc3)nc3c2c(=O)n(C)c(=O)n3C)n1 [CBK269394] | 151.747%
8 | CCN(CC)CCNc1ncnc(N)c1[N+](=O)[O-] [CBK267287] | 126.267%
9 | Cc1ccc(C(=O)Nc2ccc(S(=O)(=O)N3CCCC3)cc2)cc1S(=O)(=O)Nc1ccccc1 [CBK268054] | 82.3038%
10 | CC(=O)NCCSc1cc(NC(C)C)ncn1 [CBK105293] | 110.619%
11 | COC(=O)Cn1cnc2sc(C(=O)Nc3ccccc3OC)c(C)c2c1=O [CBK071808] | 129.959%
12 | Cc1cc(C2CCCCCN2C(=O)c2nn(C)cc2Cl)on1 (stereo not shown) [CBK284843] | 104.896%
13 | COc1ccc(/C(C)=N/NC(=O)CSCc2cccc(Br)c2)cc1 [CBK261205] | 115.502%
14 | O=C(Nc1ccc(Cl)cc1)N1Cc2nc[nH]c2C[C@H]1c1nc(-c2ccncc2)no1 [CBK288964] | 143%
15 | CCOc1cc(C(c2c[nH]c3ccccc23)c2c[nH]c3ccccc23)cc([N+](=O)[O-])c1O [CBK266061] | 116.226%
16 | Fc1cc(Br)ccc1-c1cn(-c2ccccc2)nn1 [CBK113148] | 70.4632%
17 | Cc1cc(C)n(C2CCN(Cc3ccc4ccccc4n3)CC2)n1 [CBK281622] | 146.693%
18 | CC(=O)C1=C(O)C(=O)N(CC(=O)O)C1c1ccc(Br)cc1 (stereo not shown) [CBK286712] | 108.562%
19 | O=C(Nc1ncccc1O)c1cnc2c(cnn2C2CCCC2)c1 [CBK305246] | 102.674%
20 | Cc1nn(C)c(C)c1OCC(=O)Nc1cc(C(C)(C)C)sc1C#N [CBK305383] | 110.403%
21 | NS(=O)(=O)c1ccc(NC(=O)CSc2ccc3ccccc3n2)cc1 [CBK265663] | 131.298%
22 | Cc1ccc(NC(=O)Nc2ccc(F)cc2)cc1S(=O)(=O)N(C)C [CBK269482] | 77.7678%
23 | COc1ccc(C(=O)C=c2[nH]c(=O)c(=Cc3ccc(C(=O)O)cc3)s2)cc1 [CBK295614] | 97.3844%
24 | CCc1c(C)nc2c(-c3ccc(OC)c(OC)c3)cnn2c1O [CBK287962] | 130.054%
25 | COc1cc(-c2nc(N)n[nH]2)cc(OC)c1OC [CBK288077] | 150.59%

Structures listed so far with a COOH group (two):
Row | Compound | % of control remaining
18 | CC(=O)C1=C(O)C(=O)N(CC(=O)O)C1c1ccc(Br)cc1 (stereo not shown) [CBK286712] | 108.562%
23 | COc1ccc(C(=O)C=c2[nH]c(=O)c(=Cc3ccc(C(=O)O)cc3)s2)cc1 [CBK295614] | 97.3844%

(more compounds)

Row | Compound | % of control remaining
26 | COc1ccc(N(CC(=O)Nc2ccc3c(c2)oc2ccccc23)S(=O)(=O)c2ccccc2)cc1 [CBK264814] | 137.758%
27 | COc1cc(C=c2sc(=CC(=O)C(C)(C)C)[nH]c2=O)ccc1OCC(=O)O [CBK296948] | 130.66%
28 | COc1nccnc1OC1CCN(Cc2ccccc2-c2ccccc2)CC1 [CBK084246] | 91.4315%
29 | Cc1cc(N2CCOC3(CCN(C(=O)c4ccc5ccccc5c4)CC3)C2)nc(N)n1 [CBK161125A] | 123.172%
30 | COc1ccc(CCN2CCC(Oc3cncc(OCC4COc5ccccc5O4)n3)C2)cc1OC (stereo not shown) [CBK084389] | 105.416%
31 | O=C1Cc2cc3ccccc3cc2C2(CCN(CCC(F)=C(F)F)CC2)N1 [CBK040033] | 129.681%
32 | O=S(=O)(c1cccs1)N1CCc2ccccc2C1 [CBK044531] | 63.612%
33 | CN(Cc1ccccc1)Cc1c(C2CCNCC2)[nH]c2ncccc12 [CBK285083] | 88.8798%
34 | COc1ccc2[nH]cc(CCNC(=O)c3ccc(-c4cccc(N(C)C)c4)nc3N(C)C(C)=O)c2c1 [CBK076589] | 128.645%
35 | O=C(O)CCCC(=O)NC(Cc1ccccc1)C(=O)Nc1ccc([N+](=O)[O-])cc1 (stereo not shown) [CBK299806] | 140.4%
36 | C/C(=N\Nc1nnc2c(n1)[nH]c1ccccc12)c1ccccn1 [CBK262054] | 0%
37 | COC1C(O)C(CO)OC1n1cc(C)c(=O)[nH]c1=O (stereo not shown) [CBK201251] | 152.045%
38 | O=C(O)c1cc(S(=O)(=O)Nc2ccccc2)ccc1O [CBK109969] | 91.2776%
39 | COc1ccc(NC(=O)CSc2nc3c(N)ncnc3[nH]2)cc1 [CBK218441] | 128.182%
40 | CCN(CC)CCCNC(=O)N1CCCCC1CO (stereo not shown) [CBK155982] | 98.7577%
41 | CCCc1cc(C(=O)N[C@@H]2CCOC[C@H]2Oc2ccc(CO)cc2)cs1 [CBK306700] | 135.022%
42 | O=C(OCc1ccccc1)N1CCC2(CC1)CN(c1ccc([N+](=O)[O-])cn1)CCO2 [CBK161111T] | 99.183%
43 | COc1ccc(/C=C2/SC(=O)N(CCNC3=NS(=O)(=O)c4ccccc43)C2=O)cc1 [CBK265545] | 122.661%
44 | O=C1NCCN1CCOc1nccnc1-c1ccsc1 [CBK106766] | 103.016%
45 | O=S(=O)(Nc1nnn[nH]1)c1ccc(F)cc1 [CBK050473] | 109.85%
46 | COc1cccc(C(=O)NC[C@H]2CC[C@H](c3cc(C(N)=O)c4ccccc4n3)CC2)c1OC [CBK285919] | 96.9273%
47 | O=C(OCCC1SC(NC2CC3C=CC2C3)=NC1=O)c1ccc(Cl)c([N+](=O)[O-])c1 (stereo not shown) [CBK200060T] | 49.7781%
48 | Nc1nc(SCC(=O)NCc2ccco2)n[nH]1 [CBK266572] | 145.373%
49 | Cc1ccc(-c2csc(C3CN4CCCC4CO3)n2)s1 (stereo not shown) [CBK304113] | 81.3821%
